The other results are listed elsewhere or left out.
Legend:
Assay in all cases: log2 fold change, soluble protein after heating vs DMSO (PISA); higher = thermal stabilisation; K562 cells, 10 uM, 30 min; active = over 0.2 and 3.5 SD of the protein, either way, in both replicates (recomputed)
[1] = compound: C1=CC=C(C=C1)[C@H](COC2=CC3=C(C=C2)NC(=O)N3)NC(=O)C4=CC=CN(C4=O)CC5=CC(=C(C=C5)F)F
Method in brief: (§1)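 K562 cells at 2×10^6 cells/mL were exposed to 10 μM compound for 30 min, then aliquots were heated for 3 min across 48°C-58°C, pooled, and extracted in PBS containing 0.5% NP-40 at 4°C. The supernatant after 21,000xg for 90 min was taken as soluble protein and measured by TMTpro 16plex LC-MS/MS with channel sums equalised. Thermal stability is reported relative to control samples, with values from duplicates. Fold changes are given on a log2 scale.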

The chains behind the UniProt entries cited, without tags or fusion partners. Where a name states a change or a piece, a line headed by the entry shows the natural chain unless it says otherwise.
UniProt Q8IYB5: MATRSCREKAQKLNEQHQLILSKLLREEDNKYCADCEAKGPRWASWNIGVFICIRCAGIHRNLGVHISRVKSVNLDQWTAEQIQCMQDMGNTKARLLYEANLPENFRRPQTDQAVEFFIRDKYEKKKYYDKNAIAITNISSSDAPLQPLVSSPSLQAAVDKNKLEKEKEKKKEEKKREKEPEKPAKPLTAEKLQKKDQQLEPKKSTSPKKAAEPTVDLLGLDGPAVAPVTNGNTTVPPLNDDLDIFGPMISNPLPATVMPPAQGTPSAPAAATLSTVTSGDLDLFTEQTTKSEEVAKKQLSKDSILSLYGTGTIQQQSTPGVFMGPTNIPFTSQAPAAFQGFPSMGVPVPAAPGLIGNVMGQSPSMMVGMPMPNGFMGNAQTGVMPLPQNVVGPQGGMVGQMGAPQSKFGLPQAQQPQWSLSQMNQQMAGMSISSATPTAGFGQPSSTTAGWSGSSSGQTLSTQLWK
UniProt Q14BN4: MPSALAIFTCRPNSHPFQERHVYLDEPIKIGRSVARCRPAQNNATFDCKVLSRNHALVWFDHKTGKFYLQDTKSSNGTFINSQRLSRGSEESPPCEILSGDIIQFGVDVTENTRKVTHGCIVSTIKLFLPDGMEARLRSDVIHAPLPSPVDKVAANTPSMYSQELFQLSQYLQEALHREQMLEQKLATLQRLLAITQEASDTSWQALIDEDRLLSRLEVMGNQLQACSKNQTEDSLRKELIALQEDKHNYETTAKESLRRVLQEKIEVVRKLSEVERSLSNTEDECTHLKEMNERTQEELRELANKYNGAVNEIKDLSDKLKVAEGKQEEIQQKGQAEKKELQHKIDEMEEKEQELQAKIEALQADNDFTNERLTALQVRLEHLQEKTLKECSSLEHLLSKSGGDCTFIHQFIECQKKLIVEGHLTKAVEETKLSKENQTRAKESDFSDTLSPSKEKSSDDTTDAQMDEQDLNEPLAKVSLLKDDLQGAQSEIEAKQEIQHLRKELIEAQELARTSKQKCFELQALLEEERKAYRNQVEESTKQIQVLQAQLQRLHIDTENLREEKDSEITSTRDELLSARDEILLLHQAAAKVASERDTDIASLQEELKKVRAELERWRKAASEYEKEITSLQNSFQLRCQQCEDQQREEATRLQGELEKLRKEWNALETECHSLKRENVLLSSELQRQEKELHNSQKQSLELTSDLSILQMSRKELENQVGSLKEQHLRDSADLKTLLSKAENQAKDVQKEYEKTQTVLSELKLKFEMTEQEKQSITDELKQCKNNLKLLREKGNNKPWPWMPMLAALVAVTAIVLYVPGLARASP
UniProt Q15036: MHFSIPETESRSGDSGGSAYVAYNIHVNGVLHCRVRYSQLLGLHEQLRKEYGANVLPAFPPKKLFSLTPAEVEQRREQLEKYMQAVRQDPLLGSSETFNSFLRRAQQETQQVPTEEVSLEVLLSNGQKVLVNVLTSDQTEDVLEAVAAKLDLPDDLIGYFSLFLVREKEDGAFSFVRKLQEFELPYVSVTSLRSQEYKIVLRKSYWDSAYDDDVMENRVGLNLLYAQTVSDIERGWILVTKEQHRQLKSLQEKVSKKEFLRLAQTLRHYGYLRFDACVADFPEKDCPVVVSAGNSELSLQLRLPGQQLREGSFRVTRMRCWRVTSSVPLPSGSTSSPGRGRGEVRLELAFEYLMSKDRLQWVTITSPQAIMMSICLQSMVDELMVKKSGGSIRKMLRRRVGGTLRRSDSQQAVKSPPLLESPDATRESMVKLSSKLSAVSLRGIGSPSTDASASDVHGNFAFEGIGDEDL
UniProt Q15796, whole entry, looked up: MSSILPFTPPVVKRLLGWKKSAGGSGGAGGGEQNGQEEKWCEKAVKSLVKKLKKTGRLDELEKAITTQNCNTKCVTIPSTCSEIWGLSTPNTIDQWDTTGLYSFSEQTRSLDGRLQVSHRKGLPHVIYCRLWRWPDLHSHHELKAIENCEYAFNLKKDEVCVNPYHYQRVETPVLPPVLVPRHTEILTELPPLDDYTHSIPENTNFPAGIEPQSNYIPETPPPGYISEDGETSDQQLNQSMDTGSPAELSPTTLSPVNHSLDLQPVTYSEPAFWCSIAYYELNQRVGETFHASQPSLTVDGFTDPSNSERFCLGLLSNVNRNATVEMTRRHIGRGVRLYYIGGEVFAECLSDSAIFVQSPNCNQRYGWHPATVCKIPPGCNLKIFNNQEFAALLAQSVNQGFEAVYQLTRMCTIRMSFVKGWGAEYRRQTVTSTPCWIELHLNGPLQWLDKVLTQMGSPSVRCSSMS
UniProt P62316, whole entry, looked up: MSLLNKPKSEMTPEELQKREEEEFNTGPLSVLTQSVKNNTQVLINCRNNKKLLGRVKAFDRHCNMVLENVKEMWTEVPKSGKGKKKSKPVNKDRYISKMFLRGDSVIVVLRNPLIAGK
UniProt Q13424: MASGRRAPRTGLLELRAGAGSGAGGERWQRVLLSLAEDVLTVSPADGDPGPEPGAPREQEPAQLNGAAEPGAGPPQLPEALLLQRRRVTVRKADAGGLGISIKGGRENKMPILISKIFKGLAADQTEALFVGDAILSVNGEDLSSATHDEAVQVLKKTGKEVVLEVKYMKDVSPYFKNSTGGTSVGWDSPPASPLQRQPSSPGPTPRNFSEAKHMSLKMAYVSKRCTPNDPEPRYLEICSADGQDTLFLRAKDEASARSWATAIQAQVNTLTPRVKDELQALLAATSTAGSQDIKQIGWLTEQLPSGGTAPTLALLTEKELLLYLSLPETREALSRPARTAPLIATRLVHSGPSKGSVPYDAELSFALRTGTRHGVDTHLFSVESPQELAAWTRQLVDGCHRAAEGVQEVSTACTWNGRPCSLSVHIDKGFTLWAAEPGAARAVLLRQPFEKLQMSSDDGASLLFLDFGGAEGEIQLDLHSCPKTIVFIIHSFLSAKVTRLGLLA
UniProt O60906: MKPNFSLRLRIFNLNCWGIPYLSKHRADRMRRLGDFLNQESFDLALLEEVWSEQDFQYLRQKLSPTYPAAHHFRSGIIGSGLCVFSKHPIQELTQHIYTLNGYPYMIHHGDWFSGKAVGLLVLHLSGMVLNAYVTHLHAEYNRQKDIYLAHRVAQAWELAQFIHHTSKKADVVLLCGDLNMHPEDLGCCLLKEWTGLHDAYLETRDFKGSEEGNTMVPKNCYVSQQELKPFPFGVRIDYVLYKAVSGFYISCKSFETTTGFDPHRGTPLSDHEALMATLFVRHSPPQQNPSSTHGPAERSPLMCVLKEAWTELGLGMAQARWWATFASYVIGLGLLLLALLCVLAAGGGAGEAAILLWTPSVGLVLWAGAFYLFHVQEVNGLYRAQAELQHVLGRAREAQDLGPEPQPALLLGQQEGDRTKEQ
UniProt Q8N5G0: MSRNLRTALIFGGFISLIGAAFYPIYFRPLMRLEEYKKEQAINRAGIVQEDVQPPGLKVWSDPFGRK
UniProt O95721: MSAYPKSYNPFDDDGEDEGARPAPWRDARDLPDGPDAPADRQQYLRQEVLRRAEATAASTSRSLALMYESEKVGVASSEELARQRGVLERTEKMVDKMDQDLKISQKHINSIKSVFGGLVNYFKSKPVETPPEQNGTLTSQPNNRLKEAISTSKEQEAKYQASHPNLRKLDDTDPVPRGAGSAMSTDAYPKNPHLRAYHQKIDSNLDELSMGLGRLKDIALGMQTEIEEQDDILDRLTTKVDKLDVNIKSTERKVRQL
UniProt P51531, whole entry, looked up: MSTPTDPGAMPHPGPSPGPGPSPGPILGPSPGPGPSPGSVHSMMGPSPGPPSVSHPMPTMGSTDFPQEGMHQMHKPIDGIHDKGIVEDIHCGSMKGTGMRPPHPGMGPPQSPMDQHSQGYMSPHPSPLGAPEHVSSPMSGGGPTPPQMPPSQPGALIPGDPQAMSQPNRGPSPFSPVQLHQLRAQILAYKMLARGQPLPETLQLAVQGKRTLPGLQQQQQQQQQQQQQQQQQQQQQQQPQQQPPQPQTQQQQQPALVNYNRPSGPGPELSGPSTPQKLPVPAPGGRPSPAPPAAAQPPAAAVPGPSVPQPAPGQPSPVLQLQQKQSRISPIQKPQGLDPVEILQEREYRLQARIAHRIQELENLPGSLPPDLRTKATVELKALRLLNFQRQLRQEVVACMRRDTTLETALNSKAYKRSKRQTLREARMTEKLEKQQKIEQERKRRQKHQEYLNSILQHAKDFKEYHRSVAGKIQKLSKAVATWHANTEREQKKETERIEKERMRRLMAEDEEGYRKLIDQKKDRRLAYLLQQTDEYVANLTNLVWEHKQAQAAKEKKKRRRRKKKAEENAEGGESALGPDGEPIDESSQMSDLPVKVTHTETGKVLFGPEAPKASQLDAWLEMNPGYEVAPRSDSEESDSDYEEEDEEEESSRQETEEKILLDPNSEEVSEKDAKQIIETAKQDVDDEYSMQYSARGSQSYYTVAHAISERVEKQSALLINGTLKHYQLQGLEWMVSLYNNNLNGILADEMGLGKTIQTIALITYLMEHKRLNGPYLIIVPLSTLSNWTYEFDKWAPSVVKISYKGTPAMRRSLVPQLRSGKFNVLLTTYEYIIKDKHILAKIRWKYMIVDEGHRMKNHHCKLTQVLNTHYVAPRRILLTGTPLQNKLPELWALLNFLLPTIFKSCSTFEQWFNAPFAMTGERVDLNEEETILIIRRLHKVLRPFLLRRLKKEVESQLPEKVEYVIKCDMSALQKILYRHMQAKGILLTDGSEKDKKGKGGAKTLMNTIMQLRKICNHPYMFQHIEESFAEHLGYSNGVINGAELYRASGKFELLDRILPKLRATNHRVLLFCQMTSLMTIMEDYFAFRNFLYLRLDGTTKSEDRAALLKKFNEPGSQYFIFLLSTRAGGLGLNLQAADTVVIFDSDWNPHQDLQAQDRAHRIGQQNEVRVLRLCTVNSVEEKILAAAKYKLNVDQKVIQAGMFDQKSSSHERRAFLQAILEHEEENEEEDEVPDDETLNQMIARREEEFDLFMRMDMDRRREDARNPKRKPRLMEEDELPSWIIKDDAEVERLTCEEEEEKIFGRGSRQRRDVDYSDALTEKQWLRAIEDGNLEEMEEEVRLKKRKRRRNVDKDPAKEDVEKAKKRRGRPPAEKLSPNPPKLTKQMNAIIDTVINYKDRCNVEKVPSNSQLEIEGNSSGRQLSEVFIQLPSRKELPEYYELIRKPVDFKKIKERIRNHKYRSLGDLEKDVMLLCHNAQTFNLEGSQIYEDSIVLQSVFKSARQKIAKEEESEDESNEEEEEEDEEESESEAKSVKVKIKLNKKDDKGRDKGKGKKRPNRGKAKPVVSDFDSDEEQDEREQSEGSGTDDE
UniProt O60493, whole entry, looked up: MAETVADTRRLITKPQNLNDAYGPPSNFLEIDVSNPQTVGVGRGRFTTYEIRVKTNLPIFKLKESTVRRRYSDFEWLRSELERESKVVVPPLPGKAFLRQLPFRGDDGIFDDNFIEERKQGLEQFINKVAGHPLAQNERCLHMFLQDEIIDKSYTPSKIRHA
UniProt P58511: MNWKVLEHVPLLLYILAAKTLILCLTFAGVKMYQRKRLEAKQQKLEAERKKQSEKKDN
UniProt P02814: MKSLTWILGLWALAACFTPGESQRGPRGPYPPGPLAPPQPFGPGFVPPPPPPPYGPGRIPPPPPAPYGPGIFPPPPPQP
UniProt O15198: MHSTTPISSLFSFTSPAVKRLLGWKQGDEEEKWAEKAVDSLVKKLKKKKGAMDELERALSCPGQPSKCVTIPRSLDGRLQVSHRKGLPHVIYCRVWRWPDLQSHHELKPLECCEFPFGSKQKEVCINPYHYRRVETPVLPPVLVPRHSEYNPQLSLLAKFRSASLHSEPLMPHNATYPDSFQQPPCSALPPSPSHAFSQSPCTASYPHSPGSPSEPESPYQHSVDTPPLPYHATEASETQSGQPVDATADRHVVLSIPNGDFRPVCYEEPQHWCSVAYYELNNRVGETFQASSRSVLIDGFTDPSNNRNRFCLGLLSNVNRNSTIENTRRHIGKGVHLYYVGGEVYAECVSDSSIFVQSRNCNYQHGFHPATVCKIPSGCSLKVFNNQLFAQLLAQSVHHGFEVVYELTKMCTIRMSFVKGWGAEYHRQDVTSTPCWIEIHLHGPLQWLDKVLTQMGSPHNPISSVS
UniProt Q9Y5X3: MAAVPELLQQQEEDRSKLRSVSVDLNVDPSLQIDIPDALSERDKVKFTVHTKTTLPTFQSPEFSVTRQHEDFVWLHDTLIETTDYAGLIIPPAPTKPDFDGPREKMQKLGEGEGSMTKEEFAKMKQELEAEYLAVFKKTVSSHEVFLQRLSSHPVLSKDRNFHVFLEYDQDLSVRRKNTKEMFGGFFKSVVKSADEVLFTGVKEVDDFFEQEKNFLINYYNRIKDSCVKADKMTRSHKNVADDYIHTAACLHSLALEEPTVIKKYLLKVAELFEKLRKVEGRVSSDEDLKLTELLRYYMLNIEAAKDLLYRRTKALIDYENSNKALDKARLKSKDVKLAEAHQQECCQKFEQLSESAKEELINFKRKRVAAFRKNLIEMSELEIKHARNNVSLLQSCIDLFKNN
UniProt O76070, whole entry, looked up: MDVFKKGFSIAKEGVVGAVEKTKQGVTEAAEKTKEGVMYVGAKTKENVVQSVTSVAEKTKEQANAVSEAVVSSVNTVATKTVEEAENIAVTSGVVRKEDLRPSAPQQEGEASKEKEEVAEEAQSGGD
UniProt Q7Z3B0: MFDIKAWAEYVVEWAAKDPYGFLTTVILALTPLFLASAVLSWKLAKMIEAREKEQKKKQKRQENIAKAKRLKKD

[2] = compound: CC1=C(SC2=C1C(=N[C@H](C3=NN=C(N32)C)CC(=O)N)C4=CC=C(C=C4)Cl)C
Method in brief: as §1

[3] = compound: CC1=C2C(=CC=C1)N=C(N(C2=O)C3=CC=CC=C3C)CN4C=NC5=C(N=CN=C54)N
Method in brief: as §1

[4] = compound: Cc1sc2c(c1C)C(c1ccc(Cl)cc1)=N[C@@H](CC(=O)OC(C)(C)C)c1nnc(C)n1-2
Method in brief: as §1

[5] = compound: c1ccc([C@@H]2C[C@H]2NC2CCNCC2)cc1
Method in brief: as §1

Measured: log2 fold change

SNU13, A0A3B3IUA2
inactive: [1] -0.092 | [2] 0.063 | [3] 0.159 | [4] 0.107 | [5] 0.044

SMAP1 isoform 2 (UniProt Q8IYB5)
inactive: [1] 0.015 | [2] 0.047 | [3] -0.013 | [4] 0.02 | [5] 0.014

SLMAP (UniProt Q14BN4)
inactive: [1] 0.022 | [2] -0.02 | [3] 0.063 | [4] 0.087 | [5] 0.02

SNX17 (UniProt Q15036)
inactive: [1] -0.072 | [2] -0.025 | [3] 0.117 | [4] 0.239 | [5] 0.119

SMARCA1 (UniProt P28370)
inactive: [1] -0.147 | [2] -0.004 | [3] 0.163 | [4] 0 | [5] 0.068

SMAD2 (UniProt Q15796)
inactive: [1] -0.014 | [2] 0.022 | [3] 0.056 | [4] -0.02 | [5] -0.066

SMG5 (UniProt Q9UPR3)
inactive: [1] 0.106 | [2] -0.018 | [3] -0.051 | [4] 0.007 | [5] 0

SPAG9 isoform 4 (UniProt O60271)
inactive: [1] 0.15 | [2] 0.006 | [3] -0.048 | [4] 0.028 | [5] 0.025

SNRPD2 (UniProt P62316)
inactive: [1] 0.016 | [2] -0.049 | [3] -0.085 | [4] 0.079 | [5] 0.044

SNTA1 (UniProt Q13424)
inactive: [1] 0.023 | [2] 0.06 | [3] 0.058 | [4] 0.118 | [5] 0.043

SMPD2 (UniProt O60906)
inactive: [1] -0.008 | [2] -0.01 | [3] 0.125 | [4] -0.072 | [5] 0.102

SNRPB2 (UniProt P08579)
inactive: [1] 0.083 | [2] 0.002 | [3] -0.044 | [4] 0.07 | [5] 0.02

SORBS3 (UniProt O60504)
inactive: [1] -0.074

SMIM20 isoform 2 (UniProt Q8N5G0)
inactive: [1] 0.019 | [2] -0.034 | [3] 0.081 | [4] -0.125 | [5] -0.1

SNRNP70 (UniProt P08621)
inactive: [1] 0.099 | [2] -0.126 | [3] -0.09 | [4] 0.168 | [5] 0.007

SNAP29 (UniProt O95721)
inactive: [1] -0.004 | [2] 0.007 | [3] 0.029 | [4] 0.003 | [5] 0.015

SMARCA2 (UniProt P51531)
inactive: [1] 0.084

2 consecutive records already listed, for reference:
SORBS3 (UniProt O60504)
inactive: [1] -0.074

SMIM20 isoform 2 (UniProt Q8N5G0)
inactive: [1] 0.019 | [2] -0.034 | [3] 0.081 | [4] -0.125 | [5] -0.1

Remaining list, next part

SMG1 (UniProt Q96Q15)
inactive: [1] -0.104 | [2] 0.003 | [3] -0.004 | [4] 0.02 | [5] -0.071

SNRPB isoform 3 (UniProt P14678)
inactive: [1] 0.027 | [2] -0.073 | [3] -0.061 | [4] 0.08 | [5] 0.033

SMIM13 (UniProt P0DJ93)
inactive: [1] 0.052

SNX3 (UniProt O60493)
inactive: [1] -0.057 | [2] 0 | [3] 0.105 | [4] -0.006 | [5] -0.064

SMU1 isoform 2 (UniProt Q2TAY7)
inactive: [1] -0.207

SLIRP (UniProt Q9GZT3)
inactive: [1] -0.038 | [2] -0.073 | [3] 0.01 | [4] -0.016 | [5] 0.042

SND1 (UniProt Q7KZF4)
inactive: [1] 0.08 | [2] -0.22 | [3] -0.144 | [4] 0.356 | [5] -0.002

SMIM11A (UniProt P58511)
inactive: [1] 0.111

SMR3B (UniProt P02814)
inactive: [1] -0.064

SMG8 isoform 2 (UniProt Q8ND04)
inactive: [1] -0.002 | [2] 0.108 | [3] 0.144 | [4] -0.049 | [5] 0.044

SMAD9 (UniProt O15198)
inactive: [1] -0.104 | [2] 0.094 | [3] -0.001 | [4] 0.076 | [5] -0.054

SNX5 (UniProt Q9Y5X3)
inactive: [1] -0.016 | [2] 0.045 | [3] 0.014 | [4] 0.04 | [5] -0.071

SMU1 (UniProt Q2TAY7)
inactive: [1] 0.012 | [2] 0.017 | [3] -0.072 | [4] -0.024 | [5] 0.049

SNCG (UniProt O76070)
inactive: [1] 0.015 | [2] 0.028 | [3] 0.035 | [4] 0.022 | [5] 0.019

SMIM15 (UniProt Q7Z3B0)
inactive: [1] 0.115 | [2] 0.011 | [3] -0.105 | [4] -0.095 | [5] 0.017

— the supplement of paper PMC10849652
